Results reported in PMC9984195.
Results are given in words; binding and its absence hold for the method and conditions named. In cells and extracts the contact can be indirect. A yes stands for co-enrichment or nearness to the bait. Other partners may have been found. Sequences can lack the tags named with a protein.

T1: Centrosomal protein of 78 kDa (Cep78), endogenous mouse testicular protein (mouse (endogenous in testis)) (UniProt Q6IRU7)
T1 sequence: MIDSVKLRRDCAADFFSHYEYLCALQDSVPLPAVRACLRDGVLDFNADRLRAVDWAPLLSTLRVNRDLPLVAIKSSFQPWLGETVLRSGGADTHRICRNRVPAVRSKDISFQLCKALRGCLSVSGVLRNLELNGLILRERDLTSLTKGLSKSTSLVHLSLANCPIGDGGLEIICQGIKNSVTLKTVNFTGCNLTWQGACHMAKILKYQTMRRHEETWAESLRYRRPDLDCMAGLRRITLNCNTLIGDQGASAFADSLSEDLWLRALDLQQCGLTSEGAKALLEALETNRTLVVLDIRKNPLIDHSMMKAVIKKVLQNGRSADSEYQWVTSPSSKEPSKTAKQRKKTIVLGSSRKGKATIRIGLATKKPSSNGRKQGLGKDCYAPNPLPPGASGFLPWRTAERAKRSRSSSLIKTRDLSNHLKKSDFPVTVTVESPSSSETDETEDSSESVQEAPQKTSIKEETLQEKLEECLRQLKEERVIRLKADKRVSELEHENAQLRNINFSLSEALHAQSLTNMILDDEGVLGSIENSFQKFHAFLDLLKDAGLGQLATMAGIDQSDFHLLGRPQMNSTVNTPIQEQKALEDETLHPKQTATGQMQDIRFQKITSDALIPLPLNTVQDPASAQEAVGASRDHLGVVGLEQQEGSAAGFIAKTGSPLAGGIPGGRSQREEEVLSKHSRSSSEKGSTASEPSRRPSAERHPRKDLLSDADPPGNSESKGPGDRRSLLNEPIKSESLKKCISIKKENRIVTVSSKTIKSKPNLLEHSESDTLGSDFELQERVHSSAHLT

B1: TRAF3-interacting protein 1 (protein, UniProt Q149C2 1-625)
chain: MNAAVVRRTQEALGKVIRRPPLTEKLLNKPPFRYLHDIITEVIRITGFMKGLYTDAEMKSENVKDKDAKISFLQKAIDVVMMVSGEPLAAKPARIVAGHEPERTNELLQLIGKCCLSKLSSDEAVKRVLAGDKGDSRGRAQRTSKAQEPNNKSGKEEESRIHKEDKRSSEAKERSASAEHKQKEELKEDSKPREKERDKEKAKEADRDRHRDPDRDRNRDGEREKARARAKDRDRNNRDRDREAERDRERDRRSEGGKEKERVKDRDRDRDKGRDRERRKSKNGEHTRDPDREKSRDADKPEKKSSSSGEISRKLSDGSFKDVKAEMEADISVGASRSSTLKPSKRRSKHSLEGDSPSDAEVEAGPAGQDKPEVMENAEVPSELPSSLRRIPRPGSARPAPPRVKRQESTETLVVDRSGSGKTVSSVIIDSQNSDNEDDEQFVVEAAPQLSEIADIDMVPSGELEDEEKHGGLVKKILETKKDYEKLQQSLKPGEKERSLIFESAWKKEKDIVSKEIEKLRVSIQTLCKSALPLGKIMDYIQEDVDAMQNELQLWHSENRQHAEALSQEQSITDSAVEPLKAELSELEQQIRDQQDKICAVKANILKNEEKIQKMVHSINLSSRR
B2: Intraflagellar transport protein 25 homolog (protein, UniProt Q9D6H2 1-143)
chain: MRKVDLCSVTEGTEVILATSSDEKHPPENIIDGNPETFWTTTGMFPQEFIICFHKHVKIEKLVIQSYLVRTLRIEKTTSKEPLDFEQWVEKDLVHTEGQLQNEEIVARDGYATFLRFIIVSAFDHFASVHSISAEGLTVSSLP
B3: Centrosomal protein of 131 kDa (protein, UniProt Q62036 1-1060)
chain: MKGSRTITATPEGSPEAVDLSLIGLPPPMSQRPGSASATRSIFRSMSVATGSEPRKKALEATGPGGPRAINNLRRSNSTTQVNQSWTGSPRPAEPTDFLMLFEGSTSGRRRVASLSKASSEKEATWNVLDEQPRGLALPASAQSPSTLDSALGPRRKECPLAPSFTANNRSNKGAVGNCVTTMVHNHYASSKMVSPPKSSNQTAPSLNNIVKAAAREGGEGSDLGKPRKNLSSASQSARGTTGLLRRREVTEEEAERFIHQVNQAAVTIQRWYRCQVQRRRAGAAALEHLLASKREGQRQRLGGGNLLELHRQEEAARKKAREEKARQARQAAIQVLQQKRAQKASEAEHRRPKDRPETRAPEQPRPMQEPGCVTHPKANNAGASIYPTGPADPCPPASESSPEQWQSPEDKPQDIHSQGEARQDLAVSGSSRGKARARATLDDLLDTLKLLEEEPEPLPHPKAYHKDRYAWTDEEEDANSLTADNLEKFGKLSAAPGPPDDGTLLSEAKLQSIMTFLDEMEKSGQERPAPWRESLVLEAGSGSEGSTSVMRLKLELEEKKQAMALLQRALAQQRDLTVRRVKETEKELTRQLRQQKEQYEATIQRHLSFIDQLIEDKKVLSEKCEAVVAELKHGDQRCRERVAQMQEQHELEIKKLKELMSATEKIRREKWINEKTKKIKEITVRGLEPEIQKLIAKHKQEVRRLRGLHEAELQQREEQAAQRHLRQAEELRQHLDREREVLGQQERERAQQRFEQHLEQEQRALEQQRRRLYNEVAEEKERLGQQAARQRAELEELRQQLEESSAALTRALRAEFERSREEQERRHQMELKALKDQLEAERQAWVASCAKKEEAWLLTRERELKEEIRKGRDQEIELVIHRLEADMTLAKEESERAAESRVKRVRDKYETELSELEQSERKLQERCSELKGRLGEAEGEKERLQSLVRQKEKELEDLRAVNTQMCSERASLAQVVRQEFAEQLAASQEETQRVKVELAELQARQQVELDEVHRRVKTALARKEAAVNSLRKQHEAAVKRADHLEELLEQHKGSSLSSK
B4: T-complex protein 1 subunit theta (protein, UniProt P42932 1-548)
chain: MALHVPKAPGFAQMLKDGAKHFSGLEEAVYRNIQACKELAQTTRTAYGPNGMNKMVINRLEKLFVTNDAATILRELEVQHPAAKMIVMASHMQEQEVGDGTNFVLVFAGALLELAEELLRIGLSVSEVISGYEIACKKAHEILPELVCCSAKNLRDVDEVSSLLRTSIMSKQYGSETFLAKLIAQACVSIFPDSGNFNVDNIRVCKILGSGIYSSSVLHGMVFKKETEGDVTSVKDAKIAVYSCPFDGMITETKGTVLIKTAEELMNFSKGEENLMDAQVKAIAGTGANVIVTGGKVADIALHYANKYNIMLVRLNSKWDLRRLCKTVGATALPKLTPPVQEEMGHCDSVYLSEVGDTQVVVFKHEKEDGAISTIVLRGSTDNLMDDIERAVDDGVNTFKVLTRDKRLVPGGGATEIELAKQITSYGETCPGLEQYAIKKFAEAFEAIPRALAENSGVKANEVISKLYSVHQEGNKNVGLDIEAEVPAVKDMLEASILDTYLGKYWAIKLATNAAVTVLRVDQIIMAKPAGGPKPPSGKKDWDDDQND
B5: Armadillo repeat-containing protein 4 (protein, UniProt B2RY50 1-1037)
chain: MGVALTRLAQWTAAGYETGTLEITPLNESILNEITKFVESFSYKYPQEAKFVFVEPLEWKTYLEPSAFELGYVVSATTAESEETGKDGQPLLFLSVPYIKVRSFGQLSQLLSIATDSKLQEAQACIEANRDPVVKILGPDYNEMKEDPTRLTLLDTIIKDKETYMKRKVAILLKQLDLHLLNHSLKYISLEISLNPGTFKKDIELLKRFSGKGEQTVLESIEYTSDYEFSNGCRAPPWRQIQGEICYVLVKPHDMETLCLTCSTEGVFLNGGKTEEEGEINYERKGEIYKDLVTCLKDKSPVFSENMSKHEIRFTEEQQKDNQIFEKPKTEDGHSSVAGSEKSKIEKISFGKSPMTKRLEPSLNWRVTVDYKDHKSSIKDSQEEKQGKLEKSSSVSVAPSRAQSHRKGGEKVEETVSESSSESEEDEEPPDHRQEANADLPSEYWQIQKLVKYLKGGNQTATVIALCSMRDFNLAQETCQLAIRDVGGLEVLINLLDTDEVKCKIGSLKILKEISHNPQIRRNIVDLGGLPIMVNILDSPHKSLKCLSAETIANVAKFKRARRAVRQHGGITKLVALLDCGQNSTEPTQPSLYETRDVEVARCGALALWSCSKSHSNKEAIRKAGGIPLLARLLKTSHENMLIPVVGTLQECASEENYRAAIKAERIIENLVKNLNSENEQLQEHCAMAIYQCAEDEETRDLVRLHGGLKPLASLLNNTDNKERLAAVTGAIWKCSISKENVIKFREYKAIETLVGLLTDQPEEVLVNVVGALGECCQEYENRVLVRKCGGIQPLVNLLVGINQALLVNVTKAVGACAVEPESMAIIDRLDGVRLLWSLLKNPHPDVKASAAWALCPCIENAKDAGEMVRSFVGGLELVVNLLKSDNKEVLASVCAAITNIAKDQENLAVITDHGVVPLLSKLANTNNDKLRRHLAEAISRCCMWGRNRVAFGEHKAVAPLVRYLKSNDTNVHRATAQALYQLSEDADNCITMHENGAVKLLLDMVGSPDQDLQEAAAGCISNIRRLALATEKARYN
B6: Intraflagellar transport protein 122 homolog (protein, UniProt Q6NWV3 1-1182)
chain: MRAVLTWRDKAEQCIYDLAFKPDGTQLILAAGNRLLVYDTSDGTLLQPLKGHKDTVYCVAYAKDGKRFASGSADKSIIIWTSKLEGILKYTHNDSIQCVSYNPVTHQLASCSSSDFGLWSPEQKSVSKHKSSSKITCCSWTNDGQYLALGMANGIISIRNKNGEEKVKIERPGGSLSPIWSICWNPSREEHNDILAVADWGQKLSFYQLSGKQIGKDRPLNFDPCCISYFTKGEYILVGGSDKQVSLFTKDGVRLGTVGEQNSWVWTCRVKPDSNYVVVGCQDGTISFYQLIFSTVHGLYKDRYAYRDSMTDVIVQHLITEQKVRIKCRELVKKIAIYKNRLAIQLPEKILIYELYSEDSTDMHYRVKEKIVKKFECNLLVVCADHIILCQEKRLQCLSFSGVKEREWQMESLIRYIKVIGGPAGREGLLVGLKNGQILKIFVDNLFAIVLLKQATAVRCLDMSASRNKLAVVDENDTCLVYDIHTKELLFQEPNANSVAWNTQCEDMLCFSGGGYLNIKASTFPVHQQKLQGFVVGYNGSKIFCLHVFSMSAVEVPQSAPMYQYLDRKMFKEAYQIACLGVTDADWRELAMEALEGLEFETARKAFTRVQDLRYLELISSIEERKKRGETNNDLFLADVFSYQGKFHEAAKLYKRSGHENLALDMYTDLCMFEYAKDFLGSGDPKETKMLITKQADWARNINEPKAAVEMYISAGEHAKAIEISGSHGWVDMLIDIARKLDKAEREPLLMCACYFKKLDSPGYAAETYLKIGDLKSLVQLYVDTKRWDEAFALGEKHPEFKDDVYVPYAQWLAENDRFEEAQKAFHKAGRQGEAVRVLEQLTHNAVVESRFNDAAYYYWMLSMQCLDMAQDPAQKDAMLDKFHHFQHLAELYHGYQTIHRYTEEPFSFDLPETLFNISKFLLHSLTKATPLGISKVNTLFTLAKQSKALGAYKLARHAYDKLRGLQIPARIQKSIELGTLTIRSKPFHDSEELVPLCYRCSTNNPLLNNLGNVCINCRQPFIFSASSYEVLHLVEFYLEEGITDEEAVALIDLEAPRHKREGKWRETSSNNSQTLKLDETMDSIGEDDPFTAKLSFEQGSSEFVPVVVNRSVLRSMSRRDVLIKRWPPPLQWQYFRSLLPDASITMCPSCFQMFHSEDYELLVLQHACCPYCRRRIDDTGP
B7: Cytoplasmic dynein 2 light intermediate chain 1 (protein, UniProt Q8K0T2 1-351)
chain: MPSETLWEIAKAEVEKRRSHGSEGDGAEIGEKSVFFIGSKNGGKTTIILRCLDRDESAKPTLALEYTYGRKTKGHNTPKDIAHFWELGGGTSLLDLISIPITVDTLRTFSIVLVLDLSKPNDLWSTMENLLQATKSHVDKVIMKLGKTSSKASAEMRQRMWSVVQKDHPDRELIDPFPIPLVIIGSKYDIFQDFDPEKRKVICKTLRFVAHYYGASLMFTSKSEALLLKIRGVINQLAFGIDKSKSICVDQNKPLFITAGLDSLCQIGSPPVPDSDIGKLQAHSPMELWKKVYDKLFPPKSTGTLKAVQDPARDPQYAESEVDEMRVQKDQELEHYKRSSSKTWKQIELDS

Molecular target: T1, Centrosomal protein of 78 kDa (Cep78), endogenous mouse testicular protein (mouse (endogenous in testis))
Assay: affinity purification with mass spectrometry; anti-Cep78 (custom antibody against p457-741 of mouse Cep78) immunoprecipitation from testicular lysates of Cep78^+/− and Cep78^−/− mice, Pierce IP lysis buffer, Pierce co-IP kit, quantitative LC-MS of silver-stained gel lanes

binding | Binder
binds | B1
binds | B2
binds | B3
binds | B4
binds | B5
binds | B6
binds | B7
